# Laboratory results from PMC6175864.
# Amino acid sequences for entries named in this document (tags omitted). A change or cut given only in a name is not applied to a line headed by its entry. Chains listed by the source or under a name are the forms on record and can include a tag or linker.
# UniProt P49815: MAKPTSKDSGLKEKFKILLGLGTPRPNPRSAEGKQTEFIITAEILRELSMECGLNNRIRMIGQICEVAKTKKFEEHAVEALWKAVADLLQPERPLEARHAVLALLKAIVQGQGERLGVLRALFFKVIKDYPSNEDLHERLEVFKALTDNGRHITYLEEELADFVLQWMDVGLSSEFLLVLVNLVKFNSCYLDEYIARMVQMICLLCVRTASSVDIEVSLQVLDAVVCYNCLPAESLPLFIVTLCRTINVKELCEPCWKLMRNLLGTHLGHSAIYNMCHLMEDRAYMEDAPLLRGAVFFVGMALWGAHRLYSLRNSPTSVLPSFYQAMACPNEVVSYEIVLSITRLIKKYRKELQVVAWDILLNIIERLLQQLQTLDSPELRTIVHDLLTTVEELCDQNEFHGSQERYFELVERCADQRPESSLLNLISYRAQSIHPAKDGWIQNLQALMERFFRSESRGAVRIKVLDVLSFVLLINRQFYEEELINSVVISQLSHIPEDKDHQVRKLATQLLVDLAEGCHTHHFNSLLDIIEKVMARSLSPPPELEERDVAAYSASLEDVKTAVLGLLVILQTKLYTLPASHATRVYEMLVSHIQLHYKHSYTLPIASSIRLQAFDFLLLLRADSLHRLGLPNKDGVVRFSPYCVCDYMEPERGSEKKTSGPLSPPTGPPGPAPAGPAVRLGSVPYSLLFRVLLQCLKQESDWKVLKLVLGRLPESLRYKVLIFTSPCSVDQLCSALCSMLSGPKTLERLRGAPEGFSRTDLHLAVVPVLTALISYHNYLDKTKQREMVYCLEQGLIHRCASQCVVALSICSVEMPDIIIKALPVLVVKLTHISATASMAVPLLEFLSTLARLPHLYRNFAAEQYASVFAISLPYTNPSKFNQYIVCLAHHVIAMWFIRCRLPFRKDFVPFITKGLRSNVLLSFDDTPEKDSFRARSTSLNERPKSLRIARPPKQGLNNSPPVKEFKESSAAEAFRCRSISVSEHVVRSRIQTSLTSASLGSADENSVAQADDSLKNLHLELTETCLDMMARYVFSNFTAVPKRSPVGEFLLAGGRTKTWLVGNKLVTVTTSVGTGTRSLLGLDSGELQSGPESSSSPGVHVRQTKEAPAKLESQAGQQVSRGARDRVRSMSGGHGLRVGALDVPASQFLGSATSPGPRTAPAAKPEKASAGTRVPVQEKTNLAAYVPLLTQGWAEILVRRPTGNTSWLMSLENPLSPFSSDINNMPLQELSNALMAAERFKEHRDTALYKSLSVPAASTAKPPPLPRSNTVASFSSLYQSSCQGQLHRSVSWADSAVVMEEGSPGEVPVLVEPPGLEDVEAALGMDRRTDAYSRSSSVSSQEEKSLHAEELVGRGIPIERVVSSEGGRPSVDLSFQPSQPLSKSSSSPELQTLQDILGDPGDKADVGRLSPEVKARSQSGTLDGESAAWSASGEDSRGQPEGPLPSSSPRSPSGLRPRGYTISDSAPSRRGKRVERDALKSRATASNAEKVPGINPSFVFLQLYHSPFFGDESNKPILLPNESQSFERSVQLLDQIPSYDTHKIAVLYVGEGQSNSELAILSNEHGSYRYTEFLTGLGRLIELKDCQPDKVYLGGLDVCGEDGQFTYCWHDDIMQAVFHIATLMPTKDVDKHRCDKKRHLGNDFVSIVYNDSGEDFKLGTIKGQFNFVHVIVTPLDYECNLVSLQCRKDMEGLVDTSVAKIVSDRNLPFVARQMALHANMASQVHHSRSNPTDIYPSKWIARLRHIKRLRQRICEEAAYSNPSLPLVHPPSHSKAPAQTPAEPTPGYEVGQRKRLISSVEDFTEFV
# UniProt O75925: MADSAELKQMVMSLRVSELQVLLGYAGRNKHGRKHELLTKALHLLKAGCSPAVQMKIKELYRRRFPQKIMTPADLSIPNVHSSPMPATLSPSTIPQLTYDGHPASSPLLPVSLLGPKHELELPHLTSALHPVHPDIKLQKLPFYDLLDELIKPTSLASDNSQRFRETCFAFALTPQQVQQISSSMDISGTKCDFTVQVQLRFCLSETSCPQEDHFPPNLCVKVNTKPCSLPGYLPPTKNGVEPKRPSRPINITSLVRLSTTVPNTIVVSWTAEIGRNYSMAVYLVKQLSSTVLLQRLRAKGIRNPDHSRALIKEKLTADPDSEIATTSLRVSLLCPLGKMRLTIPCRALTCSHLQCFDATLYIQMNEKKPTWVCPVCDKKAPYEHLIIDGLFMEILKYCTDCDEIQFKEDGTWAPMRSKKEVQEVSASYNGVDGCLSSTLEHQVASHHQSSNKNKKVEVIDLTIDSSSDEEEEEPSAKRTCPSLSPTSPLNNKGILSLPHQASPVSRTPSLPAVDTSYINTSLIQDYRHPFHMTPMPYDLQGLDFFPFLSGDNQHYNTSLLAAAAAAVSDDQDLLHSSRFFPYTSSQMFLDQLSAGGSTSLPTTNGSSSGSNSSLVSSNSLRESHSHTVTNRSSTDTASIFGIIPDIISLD
# UniProt P62745: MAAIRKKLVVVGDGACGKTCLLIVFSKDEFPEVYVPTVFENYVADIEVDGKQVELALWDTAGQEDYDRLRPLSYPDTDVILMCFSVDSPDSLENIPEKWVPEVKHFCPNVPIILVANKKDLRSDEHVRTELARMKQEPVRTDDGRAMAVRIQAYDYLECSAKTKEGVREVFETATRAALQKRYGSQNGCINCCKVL
# HA-tagged RhoB 2E, in HeLa (P62745, form named): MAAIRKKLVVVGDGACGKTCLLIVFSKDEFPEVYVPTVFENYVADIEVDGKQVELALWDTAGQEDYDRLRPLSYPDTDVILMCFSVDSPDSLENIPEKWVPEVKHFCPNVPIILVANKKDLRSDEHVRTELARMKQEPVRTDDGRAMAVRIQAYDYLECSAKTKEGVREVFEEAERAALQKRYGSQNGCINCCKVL
# HA-tagged RhoB T173,175A (2A), in HEK293T (P62745, form named): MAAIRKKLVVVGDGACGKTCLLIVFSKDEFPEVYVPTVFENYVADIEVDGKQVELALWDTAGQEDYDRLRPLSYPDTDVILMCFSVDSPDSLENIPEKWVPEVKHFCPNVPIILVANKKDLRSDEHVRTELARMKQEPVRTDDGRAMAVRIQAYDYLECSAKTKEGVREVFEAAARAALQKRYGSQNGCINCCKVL
# HA-tagged RhoB 4KR, in HeLa (P62745, form named): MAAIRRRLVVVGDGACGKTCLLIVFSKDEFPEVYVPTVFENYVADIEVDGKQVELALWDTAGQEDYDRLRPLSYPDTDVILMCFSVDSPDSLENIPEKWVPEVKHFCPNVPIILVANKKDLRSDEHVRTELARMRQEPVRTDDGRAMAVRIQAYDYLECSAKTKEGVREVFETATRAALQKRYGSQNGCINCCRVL
# UniProt P63279: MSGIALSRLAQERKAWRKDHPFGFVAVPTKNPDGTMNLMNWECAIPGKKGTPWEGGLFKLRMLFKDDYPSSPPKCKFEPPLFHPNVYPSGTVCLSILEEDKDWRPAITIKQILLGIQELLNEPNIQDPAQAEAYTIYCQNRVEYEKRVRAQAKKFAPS
# No constants are given. Whether binding was seen depends on the method and setting. For part of these data: Binding seen in cells or lysates may run through a third protein. Some results given as binding are weak or reduced against the parent protein; the word gives no strength.
# Experiments:
# [1] = biological target: endogenous TSC2 (HeLa) (human (endogenous in HeLa)) (UniProt P49815); experiment: co-IP; HeLa cells (untransduced or transduced with HA-RhoB forms), untreated or 2 h after UV (80 J/m2) or 4 h after MMS (0.5 mM), with or without Chk1 inhibitor; anti-TSC2 IP of endogenous TSC2, blot for associated RhoB
# [2] = biological target: Flag-tagged PIAS1 (F-PIAS1) (UniProt O75925); experiment: co-IP; HEK293T cells transfected with Flag- and HA-tagged proteins, lysed in TNTE 0.5% (50 mM Tris-HCl pH 7.5, 150 mM NaCl, 1 mM EDTA, 0.5% Triton X-100); anti-Flag IP, blot for associated HA-RhoB; for PIAS1 cells with or without UV (80 J/m2, 1 h) or MMS
# [3] = biological target: GST-RhoB (human) (UniProt P62745); experiment: pull-down; in vitro GST pull-down with bacterially expressed proteins purified on glutathione sepharose beads in TNTE 0.5% buffer; free Ubc9 and PIAS1 obtained by TEV cleavage; both purified
# [4] = biological target: endogenous RhoB (HeLa) (human (endogenous in HeLa)) (UniProt P62745); experiment: co-IP; HeLa cells transduced with the tagged catalytically inactive mutant; anti-RhoB IP of endogenous RhoB, blot for the associated mutant
# [5] = biological target: Flag-tagged Ubc9 (F-Ubc9) (UniProt P63279); experiment: co-IP; HEK293T cells transfected with Flag- and HA-tagged proteins, lysed in TNTE 0.5% (50 mM Tris-HCl pH 7.5, 150 mM NaCl, 1 mM EDTA, 0.5% Triton X-100); anti-Flag IP, blot for associated HA-RhoB; for PIAS1 cells with or without UV (80 J/m2, 1 h) or MMS
# [6] = biological target: exogenous RhoB (constructs of Supplementary Fig. 1d and 6e) (human) (UniProt P62745); experiment: co-IP; in cells with exogenous RhoB (Supplementary Fig. 1d and 6e); tags, cells and the precipitated partner not shown
substance,measurement,setting,value
endogenous RhoB (HeLa) (from UniProt P62745 1-196),binding,[1],binds
"HA-tagged RhoB T173,175E (2E), in HEK293T (from UniProt P62745 1-196)",binding,[2],binds
free PIAS1 protein (from GST-PIAS1 by TEV cleavage) (from UniProt O75925 1-651) (enzyme),binding,[3],binds
"HA-tagged RhoB 2E, in HeLa (from UniProt P62745 1-196)",binding,[1],binds
"HA-tagged RhoB 2A, in HeLa (from UniProt P62745 1-196)",binding,[1],binds weakly
"HA-tagged RhoB 4KR, in HeLa (from UniProt P62745 1-196)",binding,[1],binds
"HA-tagged RhoB T173,175A (2A), in HEK293T (from UniProt P62745 1-196)",binding,[2],binds weakly
HA-tagged PIAS1-C351S mutant (HA-PIAS1-C351S) (from UniProt O75925 1-651) (enzyme),binding,[4],binds
"HA-tagged RhoB (HA-RhoB), wild type, in HEK293T (from UniProt P62745 1-196)",binding,[2],binds
same,binding,[5],binds
PIAS1-C351S (construct of Supplementary Fig. 1d) (from UniProt O75925 1-651) (enzyme),binding,[6],binds
"HA-tagged RhoB, wild type, in HeLa (from UniProt P62745 1-196)",binding,[1],binds
